In paper PMC7181755 one finds binding data, which are given here for eight molecules.

The assay concerns the target T1, 3×Flag-tagged GSDME (UniProt O60443).
T1 sequence: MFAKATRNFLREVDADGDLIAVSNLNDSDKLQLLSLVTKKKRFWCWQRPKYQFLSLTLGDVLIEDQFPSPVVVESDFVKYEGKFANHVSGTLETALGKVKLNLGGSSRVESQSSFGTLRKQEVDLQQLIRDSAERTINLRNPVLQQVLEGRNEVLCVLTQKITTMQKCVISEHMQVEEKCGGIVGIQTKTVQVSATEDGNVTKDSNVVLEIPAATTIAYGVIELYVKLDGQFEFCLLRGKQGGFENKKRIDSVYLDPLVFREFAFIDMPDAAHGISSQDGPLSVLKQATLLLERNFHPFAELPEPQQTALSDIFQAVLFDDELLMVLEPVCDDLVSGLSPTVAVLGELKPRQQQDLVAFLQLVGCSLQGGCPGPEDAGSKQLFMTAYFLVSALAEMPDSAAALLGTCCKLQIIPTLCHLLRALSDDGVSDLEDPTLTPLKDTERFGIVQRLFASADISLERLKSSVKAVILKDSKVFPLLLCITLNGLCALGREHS
As to the kind of experiment: co-IP; 3×Flag-GSDME and HA-tagged ZDHHCs co-transfected into 293T cells; precipitation with anti-Flag antibody (Flag magnetic beads), 4 °C overnight; 20 mM Tris pH 7.5, 150 mM NaCl, 1% Triton X-100; western blot.

No constants are given. Whether binding was seen depends on the method and setting. In cells and extracts the contact can be indirect. Some binding calls cover weakened binding; strength is not graded here. Tags and fused reporters may be left off the sequences shown.

B1: HA-tagged ZDHHC11 (enzyme, UniProt Q9H8X9 1-412)
chain: MDTRSGSQCSVTPEAILNNEKLVLPPRISRVNGWSLPLHYFQVVTWAVFVGLSSATFGIFIPFLPHAWKYIAYVVTGGIFSFHLVVHLIASCIDPADSNVRLMKNYSQPMPLFDRSKHAHVIQNQFCHLCKVTVNKKTKHCISCNKCVSGFDHHCKWINNCVGSRNYWFFFSTVASATAGMLCLIAILLYVLVQYLVNPGVLRTDPRYEDVKNMNTWLLFLPLFPVQVQTLIVVIIGMLVLLLDFLGLVHLGQLLIFHIYLKAKKMTTFEYLINNRKEESSKHQAVRKDPYVQMDKGVLQQGAGALGSSAQGVKAKSSLLIHKHLCHFCTSVNQDGDSTAREGDEDPCPSALGAKARNSRLICRRLCQFSTRVHPDGGSMAQEADDAPSISTLGLQQETTEPMKTDSAESED
For the molecule B1, the binding entry was “binds”.

B2: HA-tagged ZDHHC6 (enzyme, UniProt Q9H6R6 1-413)
chain: MGTFCSVIKFENLQELKRLCHWGPIIALGVIAICSTMAMIDSVLWYWPLHTTGGSVNFIMLINWTVMILYNYFNAMFVGPGFVPLGWKPEISQDTMYLQYCKVCQAYKAPRSHHCRKCNRCVMKMDHHCPWINNCCGYQNHASFTLFLLLAPLGCIHAAFIFVMTMYTQLYHRLSFGWNTVKIDMSAARRDPLPIVPFGLAAFATTLFALGLALGTTIAVGMLFFIQMKIILRNKTSIESWIEEKAKDRIQYYQLDEVFVFPYDMGSRWRNFKQVFTWSGVPEGDGLEWPVREGCHQYSLTIEQLKQKADKRVRSVRYKVIEDYSGACCPLNKGIKTFFTSPCTEEPRIQLQKGEFILATRGLRYWLYGDKILDDSFIEGVSRIRGWFPRKCVEKCPCDAETDQAPEGEKKNR
As for B2, the binding result is on record as “binds”.

B3: HA-tagged ZDHHC22 (enzyme, UniProt Q8N966 1-263)
chain: MLALRLLNVVAPAYFLCISLVTFVLQLFLFLPSMREDPAAARLFSPALLHGALFLFLSANALGNYVLVIQNSPDDLGACQGASARKTPCPSPSTHFCRVCARVTLRHDHHCFFTGNCIGSRNMRNFVLFCLYTSLACLYSMVAGVAYISAVLSISFAHPLAFLTLLPTSISQFFSGAVLGSEMFVILMLYLWFAIGLACAGFCCHQLLLILRGQTRHQVRKGVAVRARPWRKNLQEVFGKRWLLGLLVPMFNVGSESSKQQDK
As to B3, the binding result is “binds”.

B4: HA-tagged ZDHHC15 (enzyme, UniProt Q96MV8 1-337)
chain: MRRGWKMALSGGLRCCRRVLSWVPVLVIVLVVLWSYYAYVFELCLVTVLSPAEKVIYLILYHAIFVFFTWTYWKSIFTLPQQPNQKFHLSYTDKERYENEERPEVQKQMLVDMAKKLPVYTRTGSGAVRFCDRCHLIKPDRCHHCSVCAMCVLKMDHHCPWVNNCIGFSNYKFFLQFLAYSVLYCLYIATTVFSYFIKYWRGELPSVRSKFHVLFLLFVACMFFVSLVILFGYHCWLVSRNKTTLEAFCTPVFTSGPEKNGFNLGFIKNIQQVFGDKKKFWLIPIGSSPGDGHSFPMRSMNESQNPLLANEETWEDNEDDNQDYPEGSSSLAVETET
Take B4: the binding entry is listed as “binds”.

B5: HA-tagged ZDHHC7 (enzyme, UniProt Q9NXF8 1-308)
chain: MQPSGHRLRDVEHHPLLAENDNYDSSSSSSSEADVADRVWFIRDGCGMICAVMTWLLVAYADFVVTFVMLLPSKDFWYSVVNGVIFNCLAVLALSSHLRTMLTDPGAVPKGNATKEYMESLQLKPGEVIYKCPKCCCIKPERAHHCSICKRCIRKMDHHCPWVNNCVGEKNQRFFVLFTMYIALSSVHALILCGFQFISCVRGQWTECSDFSPPITVILLIFLCLEGLLFFTFTAVMFGTQIHSICNDETEIERLKSEKPTWERRLRWEGMKSVFGGPPSLLWMNPFVGFRFRRLPTRPRKGGPEFSV
For B5, the binding entry is “binds”.

B6: HA-tagged ZDHHC12 (enzyme, UniProt Q96GR4 1-267)
chain: MAPWALLSPGVLVRTGHTVLTWGITLVLFLHDTELRQWEEQGELLLPLTFLLLVLGSLLLYLAVSLMDPGYVNVQPQPQEELKEEQTAMVPPAIPLRRCRYCLVLQPLRARHCRECRRCVRRYDHHCPWMENCVGERNHPLFVVYLALQLVVLLWGLYLAWSGLRFFQPWGQWLRSSGLLFATFLLLSLFSLVASLLLVSHLYLVASNTTTWEFISSHRIAYLRQRPSNPFDRGLTRNLAHFFCGWPSGSWETLWAEEEEEGSSPAV
In the case of B6, the binding result was “binds”.

B7: HA-tagged ZDHHC4 (enzyme, UniProt Q9NPG8 1-344)
chain: MDFLVLFLFYLASVLMGLVLICVCSKTHSLKGLARGGAQIFSCIIPECLQRAVHGLLHYLFHTRNHTFIVLHLVLQGMVYTEYTWEVFGYCQELELSLHYLLLPYLLLGVNLFFFTLTCGTNPGIITKANELLFLHVYEFDEVMFPKNVRCSTCDLRKPARSKHCSVCNWCVHRFDHHCVWVNNCIGAWNIRYFLIYVLTLTASAATVAIVSTTFLVHLVVMSDLYQETYIDDLGHLHVMDTVFLIQYLFLTFPRIVFMLGFVVVLSFLLGGYLLFVLYLAATNQTTNEWYRGDWAWCQRCPLVAWPPSAEPQVHRNIHSHGLRSNLQEIFLPAFPCHERKKQE
B7: the binding result is reported as “binds”.

B8: HA-tagged ZDHHC23 (enzyme, UniProt Q8IYP9 1-409)
chain: MTQKGSMKPVKKKKTEEPELEPLCCCEYIDRNGEKNHVATCLCDCQDLDEGCDRWITCKSLQPETCERIMDTISDRLRIPWLRGAKKVNISIIPPLVLLPVFLHVASWHFLLGVVVLTSLPVLALWYYYLTHRRKEQTLFFLSLGLFSLGYMYYVFLQEVVPKGRVGPVQLAVLTCGLFLILLALHRAKKNPGYLSNPASGDRSLSSSQLECLSRKGQEKTKGFPGADMSGSLNNRTTKDDPKGSSKMPAGSPTKAKEDWCAKCQLVRPARAWHCRICGICVRRMDHHCVWINSCVGESNHQAFILALLIFLLTSVYGITLTLDTICRDRSVFTALFYCPGVYANYSSALSFTCVWYSVIITAGMAYIFLIQLINISYNVTEREVQQALRQKTGRRLLCGLIVDTGLLG
B8: the binding entry was “binds”.
